Results are given in words; binding and its absence hold for the method and conditions named. In cells and extracts the contact can be indirect. Some entries that bind do so weakly or less than the wild type. Sequences can lack the tags named with a protein.
Target: T1, GST-Usp (Drosophila) (UniProt P20153)
T1 sequence: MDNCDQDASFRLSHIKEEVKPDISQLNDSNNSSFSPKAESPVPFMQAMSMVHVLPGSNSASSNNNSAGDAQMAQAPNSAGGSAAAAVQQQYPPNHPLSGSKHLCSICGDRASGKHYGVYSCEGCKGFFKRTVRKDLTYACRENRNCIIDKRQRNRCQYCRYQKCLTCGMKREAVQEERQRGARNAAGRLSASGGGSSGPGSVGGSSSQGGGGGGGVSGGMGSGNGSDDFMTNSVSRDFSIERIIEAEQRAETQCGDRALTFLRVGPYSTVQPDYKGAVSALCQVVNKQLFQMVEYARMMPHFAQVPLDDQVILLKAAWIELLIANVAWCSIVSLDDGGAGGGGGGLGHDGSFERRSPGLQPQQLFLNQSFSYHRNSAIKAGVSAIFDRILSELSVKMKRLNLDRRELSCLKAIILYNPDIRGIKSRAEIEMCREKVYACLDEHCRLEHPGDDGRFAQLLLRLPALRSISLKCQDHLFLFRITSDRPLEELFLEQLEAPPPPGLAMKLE
Experiment: pull-down; GST-tagged bait and His-tagged prey, each from the bacterial soluble protein fraction, mixed in Buffer A (20 mM Tris, 1 mM MgCl2, 150 mM NaCl, 0.1% NP-40, 10% glycerol, pH 8.0) 1.5 h at 4°C, then Glutathione Sepharose 4B 1.5 h at 4°C; prey detected by anti-EcR or anti-Jun immunoblot; with or without added 20E

binding: binds
B1: His-Jun (protein, UniProt P18289 1-289)
chain: MKTPVSAAANLSIQNAGSSGATAIQIIPKTEPVGEEGPMSLDFQSPNLNTSTPNPNKRPGSLDLNSKSAKNKRIFAPLVINSPDLSSKTVNTPDLEKILLSNNLMQTPQPGKVFPTKAGPVTVEQLDFGRGFEEALHNLHTNSQAFPSANSAANSAANNTTAAAMTAVNNGISGGTFTYTNMTEGFSVIKDEPVNQASSPTVNPIDMEAQEKIKLERKRQRNRVAASKCRKRKLERISKLEDRVKVLKGENVDLASIVKNLKDHVAQLKQQVMEHIAAGCTVPPNSTDQ

From paper PMC8411571
